Record: PubChem BioAssay AID1259281 (Sanger Institute, 2017)
Shown is one part, drawn at random, of 794 reagents. Over the whole deposit, 22 (2.8%) got an active call. 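Calls rest on knock-down alone only; drug synergy scores play no part in them.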 Unmarked entries are inactive. Not all columns of the deposit are shown. Not given: the amount of reagent, the time to read-out.

- Aim: 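Screen kinases and frequently colorectal-mutated genes for lethal knock-downs and drug partners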 (primary screen)
- Cells: human COLO678 colorectal cancer cell line
- Reagents: siRNA pool against human genes
- Challenge: anchor drugs at fixed doses: BYL719 1 µM, cetuximab 5 µg/ml or trametinib 10 nM; DMSO vehicle for the siRNA-alone arm
- Measurement: 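Cell viability compared with non-targeting pool wells, averaged over replicates; knock-down-alone effect also as robust z-score; synergy scores set knock-down plus drug against expected joint effect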
- Scale: robust z-score, siRNA alone: higher = more viable cells; strongly negative means essential
- Active means: 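Called essential (knock-down alone) if knock-down by itself drops cell number to a robust z-score under -3; all others no change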
- Calls: active = essential (knock-down alone); inactive = no change

HK1 (hexokinase 1) — robust z-score, siRNA alone = 0.425
CDKL1 (cyclin dependent kinase like 1) — robust z-score, siRNA alone = 0.473
CAMKK1 (calcium/calmodulin dependent protein kinase kinase 1) — robust z-score, siRNA alone = 0.473
CDK8 (cyclin dependent kinase 8) — robust z-score, siRNA alone = -2.01
PIP4K2C (phosphatidylinositol-5-phosphate 4-kinase type 2 gamma) — robust z-score, siRNA alone = -1.38

Next part (2 carried over from the part before).
CDK8 (cyclin dependent kinase 8) — robust z-score, siRNA alone = -2.01
PIP4K2C (phosphatidylinositol-5-phosphate 4-kinase type 2 gamma) — robust z-score, siRNA alone = -1.38
CLK1 (CDC like kinase 1) — robust z-score, siRNA alone = 0.473
ACO1 (aconitase 1) — robust z-score, siRNA alone = -0.85
PHKA2 (phosphorylase kinase regulatory subunit alpha 2) — robust z-score, siRNA alone = 0.473
STK17B (serine/threonine kinase 17b) — robust z-score, siRNA alone = -0.41
SOS2 (SOS Ras/Rho guanine nucleotide exchange factor 2) — robust z-score, siRNA alone = 0.473
PDK3 (pyruvate dehydrogenase kinase 3) — robust z-score, siRNA alone = -3.02 (active)
DYRK3 (dual specificity tyrosine phosphorylation regulated kinase 3) — robust z-score, siRNA alone = 0.473
